{
  "source": "patent US6187800A",
  "about": "“Method for the prevention and treatment of mastitis” (Novartis Animal Health U.S., Inc., priority 1997, dated 2001)",
  "tested_on": "Bacillus stearothermophilus",
  "assay": "Delvotest P in milk from treated bovine mammary gland quarters",
  "format": "cell-based",
  "settings": "for no of milkings after last treatment that Delvotest P pos or +/-: 3 at 12 hrs, 4 quarters",
  "data": [
    {"substance": "micrococcin P1", "values": [
      {"measurement": "no of milkings after last treatment that Delvotest P pos or +/-", "setting": "0.5 mg", "value": 0},
      {"measurement": "no of milkings after last treatment that Delvotest P pos or +/-", "setting": "1 mg", "value": 1},
      {"measurement": "no of milkings after last treatment that Delvotest P pos or +/-", "setting": "2 mg", "value": 1},
      {"measurement": "no of milkings after last treatment that Delvotest P pos or +/-", "setting": "4 mg", "value": 2},
      {"measurement": "interference with Delvotest P", "setting": "dose of 0,5 mg", "value": "does not interfere with Delvotest P"}
    ]}
  ]
}
